Measured values from US20110195987A1, “TREATMENT WITH CHOLINERGIC AGONISTS” (priority 2009, published 2011).
For at least one compound, name, drawing or mass did not settle the structure.

Assay: Case studies: vaginal dryness / vaginal secretions in female patients
Assay type: in vivo, human
Conditions: Case Study 3, patient seven; oral hormone replacement therapy, estradiol and PROMETRIUM together
Procedure: A second patient two, suffering from painful intercourse and vaginal dryness and discomfort, also used oral pilocarpine at a dose of 2.5-5 mg BID. […] A trial of intra-vaginal administration of pilocarpine, starting at a dose of 1/4 of a 5 mg tablet daily at night was tried. […] The patient had previously tried HRT without much improvement. The improvement in vaginal symptoms was stunning.
A third patient has had problems with vaginal dryness and painful intercourse for several years. Oral hormone replacement therapy consisting of both estradiol and PROMETRIUM (progesterone), had provided no relief for their vaginal symptoms. They were started on oral Evoxac, 30 mg daily. After a week, they administered 30 mg cevimeline mixed with a small amount of yogurt directly in the vagina nightly. They have reported improvement in both vaginal dryness and pain on intercourse and continues on the treatment.
They were started on oral pilocarpine, 5 mg twice a day. Within a few days, they noticed marked improvement in their symptoms, i.e., a reduction in vaginal dryness and symptoms associated with urinary tract infections. […]
Their symptoms consisted of vaginal and pelvic pain as well as signs of urinary tract infections with trace positive cultures. Prior attempts to treat urinary tract infections with antibiotics often failed. […]

## C[C@]12CC[C@@H]3c4ccc(O)cc4CC[C@H]3[C@@H]1CC[C@@H]2O [estradiol]
  vaginal symptoms (vaginal dryness and painful intercourse): no relief
